Data taken from ChEMBL document CHEMBL3988442, “University of Dundee, Small-Polar-MMV Screening Library” (2021).

Results are given as percent effect. The controls that fix the scale are not given in the record; negative values are as filed. The compounds are a random part of those screened. A dash means the value is not listed here; it may have been measured.

T. brucei: 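Whole-parasite assay of Trypanosoma brucei over 72 hours; the read-out is not stated. Tested at 30 µM. Direction is inferred from retests: higher values go with stronger inhibition. Values scatter widely below zero; nearly all retest evidence comes from the higher of the two concentrations used. Size under these conditions: about 64,000 compounds, about 940 of them at 50% or above in at least one test.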
Toxoplasma: 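Assay of Toxoplasma gondii numbers, read through their beta-galactosidase reporter with a colour substrate. Compounds at 10 µM. The record gives no direction; the compounds picked for IC50 retests had high values, so higher reads as fewer parasites. Of about 67,000 compounds tested this way, about 260 (0.38%) reached 50% or more in at least one test.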
Leishmania in macrophages: 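Cell assay of Leishmania donovani living inside macrophages; the read-out is not stated. Compounds at 30 µM. Direction is inferred from retests: higher values go with stronger inhibition. Of about 69,000 compounds tested this way, about 1,000 (1.5%) reached 50% or more in at least one test.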

SMILES	T. brucei	Toxoplasma	Leishmania in macrophages
Nc1nc(CN2CCN(c3nccs3)CC2)cs1	-68.45	5.631	26.47
CSC(C)(C)CNC(=O)NCCC1CCN(C)CC1	-7.338	-6.718	7.968
CN(C)c1ncccc1CNc1cc(N2CCCC2CO)ncn1 (stereo not given)	0.05765	-13.55	-19.93
O=C(O)C(F)(F)F.[H][C@]12CN(Cc3cc(C)on3)C[C@@]1([H])OCCN(C(=O)c1ccsc1)C2	-133.2	-1.803	21.32
CCCNC(=O)c1nc2c(o1)CN(c1ncccn1)C2	-67.22	-2.211	21.81
[H][C@@]12CN(C(=O)c3cc(C)oc3C)C[C@]1([H])[C@H]2CN(C)CCc1ccccn1	-17.29	-9.88	-26.53
NC(=O)c1ccc(N2CCCCC2)c(NC(=O)c2cncc(Br)c2)c1	-22.34	-10.12	24.49
COC(=O)CN1CCC(C(=O)c2cc(F)ccc2F)CC1	-25.53	-12.48	25.17
CCC(C)(C)CC(=O)NC(C)C(=O)Nc1ccc(-n2cncn2)cc1 (stereo not given)	-2.649	0.8097	24.14
CO[C@H]1CO[C@@]2(CCCN(C(=O)N(C)C)C2)C1	-68.61	-30.05	25.22
CC(=O)NCCNC(=O)c1sccc1Br	-16.38	-2.021	15.46
O=C(NCc1cn2cccnc2n1)C1CC(=O)N(Cc2cccnc2)C1 (stereo not given)	-	-30.22	-9.91
CN(C)C(=O)N1CCC2(CC1)CN(Cc1ccccn1)C(=O)CO2.O=C(O)C(F)(F)F	-7.785	5.463	22.54
COc1coc(CN2CCCC3(CCC(=O)N(C4CC4)C3)C2)cc1=O (stereo not given)	-60.58	-22.99	33.14
Cc1ccnc(N2CCCC(c3nccn3C(C)C)C2)n1 (stereo not given)	-6.407	1.489	21.58
CCn1nc2c(cc1=O)CN(Cc1nc3ccccc3o1)CC2	11.56	11.36	-1.41
CN1CC(C(=O)N2CCN(c3cccc(Cl)c3)C(=O)C2)NC1=O (stereo not given)	-24.88	-7.533	9.767
COc1c(CNCc2cccnc2OC(C)C)c(C(C)C)nn1C	-16.81	2.189	2.583
CS(=O)(=O)NC(=O)c1ccn(-c2ccccc2Cl)n1	-68.12	-38.07	18.05
Cn1ccnc1CN1CC2(CCN(Cc3ccncc3)C2)C1	-19.56	-3.268	-7.853
Cc1cc(C)n(C2CN(CC(O)c3ccc(F)cc3)C2)n1 (stereo not given)	25.04	1.8	17.64
O=C(O)C(F)(F)F.O=C(O)C(F)(F)F.[H][C@@]12CCN(c3ncccn3)[C@]1([H])CC[C@H](C(=O)NCc1cccnc1)O2	-19.45	6.071	6.718
Cc1noc(CN2CCOC(CN(C)C)C2)n1 (stereo not given)	-80.35	-0.3231	4.829
Cc1nc(CN2CCCCC2Cn2cncn2)nc2ccccc12 (stereo not given)	-47.14	-1.831	31.42
COc1nc(C)ccc1CNC(=O)NC(C)(C)c1ncc(C)s1	-4.72	3.481	1.033
CC(C)c1nsc(N2CCCOCC2)n1	-21.36	-7.55	-18.34
O=C(NC1CCN(CC2CC2)C1)c1ccc(C(=O)c2cc[nH]c2)cc1 (stereo not given)	-11.73	-8.753	-2.335
Fc1cnc(N2CCOCC3(CCCNC3)C2)nc1 (stereo not given)	-15.59	7.027	4.139
C[C@@H]1CN(C(=O)c2cccc(F)c2)C[C@]12CCN(c1ccsc1)C2=O	-486.5	-4.996	31.01
O=C(O)C(F)(F)F.[H][C@@]12COC[C@]1(COc1ccccn1)CN(S(=O)(=O)C1CC1)C2	-33.56	-5.465	16.26
CN(CC(C)(C)C)S(=O)(=O)c1ccc(C(F)(F)F)nc1	-18.44	-8.33	-7.329
c1ccc(C(c2ccccc2)N2CCN(CCn3cncn3)CC2)cc1	-22.45	-5.255	-1.284
COC(=O)NCCCC(=O)NCC1(c2cccc(Cl)c2)CC1	-10.46	-1.406	0.07135
COCCn1cnnc1CCn1ccnc1-c1ccccc1Cl	-14.73	-6.724	36.46
O=C1CC(c2ccccc2)C2(CCN(Cc3ccncc3)CC2)N1 (stereo not given)	17.2	4.697	24.71
O=C(O)C(F)(F)F.O=C(O)C(F)(F)F.[H][C@]12CCC[C@@]1(COc1cccnc1)CN(C1CCOCC1)C2	-10.69	-1.475	39.91
O=C(c1ccoc1)N1CCCn2cnc(COCC3CC3)c2C1	-	0.3765	17.95
CC(NS(C)(=O)=O)C(=O)N(C)Cc1csc(-c2cccs2)n1 (stereo not given)	-37.31	-1.633	13.6
COc1cccc(NC(=O)NCC(Cc2cnn(C)c2)C(N)=O)c1 (stereo not given)	-28.02	1.268	14.64

The last 5 entries again:

O=C1CC(c2ccccc2)C2(CCN(Cc3ccncc3)CC2)N1 (stereo not given) gave T. brucei: 17.2%; Toxoplasma: 4.697%; Leishmania in macrophages: 24.71%.
O=C(O)C(F)(F)F.O=C(O)C(F)(F)F.[H][C@]12CCC[C@@]1(COc1cccnc1)CN(C1CCOCC1)C2 gave T. brucei: -10.69%; Toxoplasma: -1.475%; Leishmania in macrophages: 39.91%.
O=C(c1ccoc1)N1CCCn2cnc(COCC3CC3)c2C1 gave Toxoplasma: 0.3765%; Leishmania in macrophages: 17.95%.
CC(NS(C)(=O)=O)C(=O)N(C)Cc1csc(-c2cccs2)n1 (stereo not given) gave T. brucei: -37.31%; Toxoplasma: -1.633%; Leishmania in macrophages: 13.6%.
COc1cccc(NC(=O)NCC(Cc2cnn(C)c2)C(N)=O)c1 (stereo not given) gave T. brucei: -28.02%; Toxoplasma: 1.268%; Leishmania in macrophages: 14.64%.